Data from paper PMC8864064.
Results are given in words; binding and its absence hold for the method and conditions named. Some results given as binding are weak or reduced against the parent protein; the word gives no strength. Blank lines part the entries; values can stand above or below the substance they belong to.

Sequences of proteins named here, by UniProt entry; tags and fusion partners are left off. A change or cut given only in a name is not applied to a line headed by its entry. A line that says so, or that is headed by a name, gives the form on record, which may keep a tag or linker. Residues count along the entry.
NOTCH3 EGF1–5 wildtype (truncated human Notch3 extracellular domain, first five EGF-like repeats, amino acids 1–234) (Q9UM47, residues 40-234): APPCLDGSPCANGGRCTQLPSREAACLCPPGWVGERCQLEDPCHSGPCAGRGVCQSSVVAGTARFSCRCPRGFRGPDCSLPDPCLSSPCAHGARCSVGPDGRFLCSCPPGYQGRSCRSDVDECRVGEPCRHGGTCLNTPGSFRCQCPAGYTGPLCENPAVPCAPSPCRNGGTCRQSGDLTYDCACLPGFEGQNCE
NOTCH3 EGF1–5 R133C (CADASIL-mutated truncated human Notch3 extracellular domain, amino acids 1–234) (Q9UM47, form named): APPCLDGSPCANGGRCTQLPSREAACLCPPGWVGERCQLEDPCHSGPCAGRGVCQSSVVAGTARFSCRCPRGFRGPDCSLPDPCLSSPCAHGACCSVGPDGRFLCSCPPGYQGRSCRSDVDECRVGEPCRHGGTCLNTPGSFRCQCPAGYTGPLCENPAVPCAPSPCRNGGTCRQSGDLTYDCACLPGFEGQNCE

Assays:
[1] = target: NOTCH3 EGF1–5 R133C (CADASIL-mutated truncated human Notch3 extracellular domain, amino acids 1–234) (human) (UniProt Q9UM47); test: condition: only in SDS, non-reducing SDS-PAGE (tests disulfide-linked oligomers); non-reducing SDS-PAGE; purified proteins in SDS loading buffer without DTT, 95°C for 5 min, 4–20% gradient gels, Coomassie; compared with reducing conditions (DTT); both purified
[2] = target: NOTCH3 EGF1–5 R133C (CADASIL-mutated truncated human Notch3 extracellular domain, amino acids 1–234) (human) (UniProt Q9UM47); test: native gel or EMSA; N3 EGF1–5 proteins at 30 µM in 1 × PBS, 37°C for 80 h with and without Bri2 BRICHOS at 1:1 and 1:2 molar; native loading buffer free of DTT and SDS; 6% native PAGE; both purified
[3] = target: NOTCH3 EGF1–5 wildtype (truncated human Notch3 extracellular domain, first five EGF-like repeats, amino acids 1–234) (human) (UniProt Q9UM47); test: condition: only in SDS, non-reducing SDS-PAGE (tests disulfide-linked oligomers); non-reducing SDS-PAGE; purified proteins in SDS loading buffer without DTT, 95°C for 5 min, 4–20% gradient gels, Coomassie; compared with reducing conditions (DTT); both purified

binding [1]: no binding
Substance: NOTCH3 EGF1–5 R133C (CADASIL-mutated truncated human Notch3 extracellular domain, amino acids 1–234) (from UniProt Q9UM47 40-234) (domain or fragment)

binding [2]: binds
Substance: Recombinant human Bri2 BRICHOS domain (from UniProt Q9Y287 137-231) (domain or fragment)

binding [3]: no binding
Substance: NOTCH3 EGF1–5 wildtype (truncated human Notch3 extracellular domain, first five EGF-like repeats, amino acids 1–234) (from UniProt Q9UM47 40-234) (domain or fragment)
